The labels stand for the following.
B1: GNL3 (protein, UniProt Q9BVP2 1-549)
chain: MKRPKLKKASKRMTCHKRYKIQKKVREHHRKLRKEAKKRGHKKPRKDPGVPNSAPFKEALLREAELRKQRLEELKQQQKLDRQKELEKKRKLETNPDIKPSNVEPMEKEFGLCKTENKAKSGKQNSKKLYCQELKKVIEASDVVLEVLDARDPLGCRCPQVEEAIVQSGQKKLVLILNKSDLVPKENLESWLNYLKKELPTVVFRASTKPKDKGKITKRVKAKKNAAPFRSEVCFGKEGLWKLLGGFQETCSKAIRVGVIGFPNVGKSSIINSLKQEQMCNVGVSMGLTRSMQVVPLDKQITIIDSPSFIVSPLNSSSALALRSPASIEVVKPMEAASAILSQADARQVVLKYTVPGYRNSLEFFTVLAQRRGMHQKGGIPNVEGAAKLLWSEWTGASLAYYCHPPTSWTPPPYFNESIVVDMKSGFNLEELEKNNAQSIRAIKGPHLANSILFQSSGLTNGIIEEKDIHEELPKRKERKQEEREDDKDSDQETVDEEVDENSSGMFAAEETGEALSEETTAGEQSTRSFILDKIIEEDDAYDFSTDYV
B2: DKC1 (protein, UniProt O60832 1-514)
chain: MADAEVIILPKKHKKKKERKSLPEEDVAEIQHAEEFLIKPESKVAKLDTSQWPLLLKNFDKLNVRTTHYTPLACGSNPLKREIGDYIRTGFINLDKPSNPSSHEVVAWIRRILRVEKTGHSGTLDPKVTGCLIVCIERATRLVKSQQSAGKEYVGIVRLHNAIEGGTQLSRALETLTGALFQRPPLIAAVKRQLRVRTIYESKMIEYDPERRLGIFWVSCEAGTYIRTLCVHLGLLLGVGGQMQELRRVRSGVMSEKDHMVTMHDVLDAQWLYDNHKDESYLRRVVYPLEKLLTSHKRLVMKDSAVNAICYGAKIMLPGVLRYEDGIEVNQEIVVITTKGEAICMAIALMTTAVISTCDHGIVAKIKRVIMERDTYPRKWGLGPKASQKKLMIKQGLLDKHGKPTDSTPATWKQEYVDYSESAKKEVVAEVVKAPQVVAEAAKTAKRKRESESESDETPPAAPQLIKKEKKKSKKDKKAKAGLESGAEPGDGDSDTTKKKKKKKKAKEVELVSE
B3: NONO (protein, UniProt Q15233 1-471)
chain: MQSNKTFNLEKQNHTPRKHHQHHHQQQHHQQQQQQPPPPPIPANGQQASSQNEGLTIDLKNFRKPGEKTFTQRSRLFVGNLPPDITEEEMRKLFEKYGKAGEVFIHKDKGFGFIRLETRTLAEIAKVELDNMPLRGKQLRVRFACHSASLTVRNLPQYVSNELLEEAFSVFGQVERAVVIVDDRGRPSGKGIVEFSGKPAARKALDRCSEGSFLLTTFPRPVTVEPMDQLDDEEGLPEKLVIKNQQFHKEREQPPRFAQPGSFEYEYAMRWKALIEMEKQQQDQVDRNIKEAREKLEMEMEAARHEHQVMLMRQDLMRRQEELRRMEELHNQEVQKRKQLELRQEEERRRREEEMRRQQEEMMRRQQEGFKGTFPDAREQEIRMGQMAMGGAMGINNRGAMPPAPVPAGTPAPPGPATMMPDGTLGLTPPTTERFGQAATMEGIGAIGGTPPAFNRAAPGAEFAPNKRRRY
B4: GAR1 (protein, UniProt Q9NY12 1-217)
chain: MSFRGGGRGGFNRGGGGGGFNRGGSSNHFRGGGGGGGGGNFRGGGRGGFGRGGGRGGFNKGQDQGPPERVVLLGEFLHPCEDDIVCKCTTDENKVPYFNAPVYLENKEQIGKVDEIFGQLRDFYFSVKLSENMKASSFKKLQKFYIDPYKLLPLQRFLPRPPGEKGPPRGGGRGGRGGGRGGGGRGGGRGGGFRGGRGGGGGGFRGGRGGGFRGRGH

The chains behind the UniProt entries cited, without tags or fusion partners.
UniProt Q96RK0: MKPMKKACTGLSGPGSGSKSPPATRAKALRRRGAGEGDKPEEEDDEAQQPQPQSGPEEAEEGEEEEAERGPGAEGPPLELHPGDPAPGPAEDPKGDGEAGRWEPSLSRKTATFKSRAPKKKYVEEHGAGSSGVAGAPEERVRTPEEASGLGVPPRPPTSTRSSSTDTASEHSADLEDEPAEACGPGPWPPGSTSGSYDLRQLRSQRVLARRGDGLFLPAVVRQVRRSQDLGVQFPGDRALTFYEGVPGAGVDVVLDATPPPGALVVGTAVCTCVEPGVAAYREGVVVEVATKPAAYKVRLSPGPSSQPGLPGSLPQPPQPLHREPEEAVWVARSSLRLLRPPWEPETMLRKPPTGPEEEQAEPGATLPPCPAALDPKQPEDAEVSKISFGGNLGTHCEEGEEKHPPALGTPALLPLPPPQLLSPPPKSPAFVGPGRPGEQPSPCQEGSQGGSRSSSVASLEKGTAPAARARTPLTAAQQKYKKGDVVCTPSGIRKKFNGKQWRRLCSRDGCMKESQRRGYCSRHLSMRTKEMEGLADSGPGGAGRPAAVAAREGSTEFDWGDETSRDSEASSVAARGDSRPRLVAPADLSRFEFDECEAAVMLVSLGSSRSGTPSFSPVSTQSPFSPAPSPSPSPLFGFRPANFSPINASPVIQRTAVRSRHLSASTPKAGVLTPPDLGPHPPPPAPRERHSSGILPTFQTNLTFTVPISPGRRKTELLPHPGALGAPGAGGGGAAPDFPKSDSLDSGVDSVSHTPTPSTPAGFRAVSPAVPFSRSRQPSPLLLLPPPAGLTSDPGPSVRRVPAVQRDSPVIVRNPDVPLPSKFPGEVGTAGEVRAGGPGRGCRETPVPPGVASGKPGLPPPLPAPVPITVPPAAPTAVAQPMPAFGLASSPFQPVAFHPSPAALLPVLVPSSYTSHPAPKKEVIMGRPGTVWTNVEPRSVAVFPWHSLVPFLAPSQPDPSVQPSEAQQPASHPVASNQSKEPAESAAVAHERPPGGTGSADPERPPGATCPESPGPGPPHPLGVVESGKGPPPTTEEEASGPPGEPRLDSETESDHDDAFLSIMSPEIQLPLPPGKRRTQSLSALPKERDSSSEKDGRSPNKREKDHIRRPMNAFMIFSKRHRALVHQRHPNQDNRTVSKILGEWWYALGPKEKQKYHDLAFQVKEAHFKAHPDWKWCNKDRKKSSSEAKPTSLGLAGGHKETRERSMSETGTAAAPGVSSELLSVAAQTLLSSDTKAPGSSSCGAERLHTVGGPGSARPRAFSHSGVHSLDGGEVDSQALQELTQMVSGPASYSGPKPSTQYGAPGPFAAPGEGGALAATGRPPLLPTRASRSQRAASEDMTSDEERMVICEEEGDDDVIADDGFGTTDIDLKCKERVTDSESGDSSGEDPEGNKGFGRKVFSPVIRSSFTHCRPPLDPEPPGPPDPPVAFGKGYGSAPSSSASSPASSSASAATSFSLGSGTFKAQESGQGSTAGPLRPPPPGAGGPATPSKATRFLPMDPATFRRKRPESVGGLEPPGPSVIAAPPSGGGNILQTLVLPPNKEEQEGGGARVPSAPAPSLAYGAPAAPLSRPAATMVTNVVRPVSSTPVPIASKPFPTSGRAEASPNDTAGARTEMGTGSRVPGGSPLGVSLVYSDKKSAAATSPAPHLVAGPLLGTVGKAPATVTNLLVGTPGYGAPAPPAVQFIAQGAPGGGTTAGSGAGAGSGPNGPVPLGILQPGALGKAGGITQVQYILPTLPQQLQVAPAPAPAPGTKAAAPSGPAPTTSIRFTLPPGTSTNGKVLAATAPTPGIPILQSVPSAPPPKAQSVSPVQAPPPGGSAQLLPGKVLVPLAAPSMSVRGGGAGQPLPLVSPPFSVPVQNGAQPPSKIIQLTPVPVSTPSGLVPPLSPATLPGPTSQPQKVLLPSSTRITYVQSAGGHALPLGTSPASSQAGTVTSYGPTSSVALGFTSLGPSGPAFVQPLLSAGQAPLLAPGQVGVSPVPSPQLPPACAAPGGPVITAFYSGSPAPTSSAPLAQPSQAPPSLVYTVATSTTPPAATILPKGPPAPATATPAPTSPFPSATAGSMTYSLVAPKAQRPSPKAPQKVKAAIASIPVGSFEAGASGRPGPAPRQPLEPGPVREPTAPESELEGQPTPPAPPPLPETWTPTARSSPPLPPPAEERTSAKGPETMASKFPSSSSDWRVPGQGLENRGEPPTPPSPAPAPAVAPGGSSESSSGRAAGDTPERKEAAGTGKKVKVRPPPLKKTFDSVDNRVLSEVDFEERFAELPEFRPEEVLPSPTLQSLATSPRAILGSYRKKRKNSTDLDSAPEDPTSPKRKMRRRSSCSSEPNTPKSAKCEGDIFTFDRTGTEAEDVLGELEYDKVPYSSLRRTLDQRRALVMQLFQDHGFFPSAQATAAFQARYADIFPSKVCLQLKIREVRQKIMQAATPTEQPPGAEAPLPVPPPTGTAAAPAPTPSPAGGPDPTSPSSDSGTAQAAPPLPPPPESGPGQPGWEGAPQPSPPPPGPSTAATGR

No constants are given. Whether binding was seen depends on the method and setting. Binding seen in cells or lysates may run through a third protein. A yes stands for co-enrichment or nearness to the bait. Other partners may have been found.

The target in one assay is Capicua (CIC), endogenous (human (endogenous in HEK293A and NHA)) (UniProt Q96RK0). As to the kind of experiment: affinity purification with mass spectrometry; nuclear fractions of NHA (NHA-CIC^WT) cells; CIC IP in triplicate with matched IgG controls; 'trigger peptides' used to enhance MS sensitivity for a subset of proteins.
B1: the binding entry is given as “binds”.
Turning to B2, the binding entry was “binds”.
For B3, the binding entry is “binds”.
As to B4, the binding entry was “binds”.

The target is the same in another assay. Kind of assay: affinity purification with mass spectrometry; nuclear fractions of HEK293A (HEK-CIC^WT) cells; IP with anti-endogenous CIC antibody (three replicates) or anti-Myc for stably expressed N-Myc-CIC-S (one experiment); LC-MS/MS; candidates identified in at least two of four replicates.
In the case of B1, the binding entry is given as “binds”.
The same measure, in the same setting: in the case of B2 it was “binds”.
The same measure, in the same setting: in the case of B3 it was “binds”; in that of B4, “binds”.

The record behind these values is publication PMC10216487.
